A short description of this series: general procedure: Fmoc solid-phase peptide synthesis. The settings on record: whole synthesis, by weight.

This is an account of results in patent US5550214 (dated 1996).

Strings that start with PEPTIDE1 are HELM notation: dots part the residues, brackets hold end groups and non-standard residues.

With PEPTIDE1{I.I.S.A.V.V.G.I.L}$$$$V2.0, the “final purity (method not given)” value is “about 40% pure by weight”.
